Source: patent publication US12721816B2, “Polymer-encapsulated drug particles” (Tonic Medical, Inc., priority 2020, dated 2026)
At least one compound was matched to its structure with a doubt left.

Assay: particle size via laser light diffraction

Question: Which results are given for `CO[C@H]1C[C@@H]2CC[C@@H](C)[C@@](O)(O2)C(=O)C(=O)N2CCCC[C@H]2C(=O)O[C@H]([C@H](C)C[C@@H]2CC[C@@H](O)[C@H](OC)C2)CC(=O)[C@H](C)/C=C(\C)[C@@H](O)[C@@H](OC)C(=O)[C@H](C)C[C@H](C)/C=C/C=C/C=C/1C` [sirolimus]?
Answer: D90 (aqueous sirolimus suspension recirculated 2 hours at 30,000 psi): 3.78 μm; D90 (sirolimus before high-pressure homogenization): 124 μm
